Assay results

From PubChem BioAssay record AID1159506 (NCATS, 2015).

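Genome-wide siRNA knockdown in TC32 Ewing sarcoma cells, comparing luciferase light from an NR0B1-promoter reporter with a CMV-promoter reporter 48 hours after transfection. Each siRNA was applied at 20 nM. A z-score of the log NR0B1-over-CMV signal, less the median of siRNAs with the same seed; more negative means a stronger specific loss of the NR0B1 reporter.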

The strongest results of the screen are mostly left out here. Sequences are the guide (antisense) strand, without overhang.

AAACGUUGGACCACGUUGG against NME3 read seed-corrected z-score 0.3824. Result for UAAGUUUCCUGGGUAUGGG against ANKRD20A5P was seed-corrected z-score -0.9621. UCGAGUUUUUGUGAGAUCC against SLC25A27 gave seed-corrected z-score 0.1942. UUUCUAGCAAGUACUUCCU against C9orf153 read seed-corrected z-score -1.04. With UUUCUUAAAGCAUCUUCCC against CARNS1 the assay gave seed-corrected z-score 0.1789. UAAGAGAUUCCAUUAUCUG against CENPK gave seed-corrected z-score 0.2821. Result for UCUGUGCUCAUUGUCGUCC against PLD1 was seed-corrected z-score -0.6229.

AAUGAAUCCAGAUCCCUCC against LCMT2 read seed-corrected z-score -0.2231. For UAGGAGACCAGGCAUAACG against SPPL3 the result was seed-corrected z-score -0.4348. With UAAAGAGGCGGGAAAGUGC against PRSS16 the assay gave seed-corrected z-score 0.01586. With UCAGCUUAAAAGUUGCCUC against OLAH the assay gave seed-corrected z-score -0.001221. AACUGAUCAAGCUUCUCUC against LUC7L read seed-corrected z-score -0.4676. UCUUUAAUUACCUCUUUAC against ENY2 read seed-corrected z-score 0.6264. Result for UCCAUGUAUACAAAGGACG against PTCHD1 was seed-corrected z-score 1.159.

For UUCAUGUAGAAAGAUUUCU against LYSMD4 the result was seed-corrected z-score -0.2398. Result for AUAGUUCACCAGUAGUUCC against MCAM was seed-corrected z-score 0.2487. UAAUUCUAUGUAGUAGGUC against RABL3 gave seed-corrected z-score 0.7299. For UUUGAUUUGCUGCUGUUUG against TCEA3 the result was seed-corrected z-score 0.07873. UUUUGAUAGCACGAAGUCC against CCT6B gave seed-corrected z-score -0.1954. For UAAACAACAACUUCUUAGU against PERM1 the result was seed-corrected z-score 0.07515. With UGGAGCUUAAACUUGAAUG against ERF the assay gave seed-corrected z-score 0.1701.

Result for UAUAGUAUUGAAAAGCUUU against RPL23AP74 was seed-corrected z-score 0.7637. Result for UUCUGGUUGAAGGACUUUC against ZBTB34 was seed-corrected z-score -0.9698. UCACGUCACAAUUAAUGUC against PDZD9 gave seed-corrected z-score -0.6158. With UGAUUUAGCACAGAAGGCU against ARRB2 the assay gave seed-corrected z-score 0.1977. Result for UACUACAAGAGUGAUGAGG against RAMP2 was seed-corrected z-score 0.1229. UUCUCUGACAUUUCGGUGA against KRT80 gave seed-corrected z-score -0.3735. Result for UAAGUAGUGGACUCUCUCA against GPR162 was seed-corrected z-score -0.0128.

AAGUUUUUGAGGAUAUAGG against KLHL22 read seed-corrected z-score 2. UGGAGUCACAUAUGUGCUC against CYP2A7 gave seed-corrected z-score 0.0193. For UUGGUGAAUAGGAACCACC against KCNJ8 the result was seed-corrected z-score 1.011. UUUGAUGCAUCUAUCUCUG against NPAT gave seed-corrected z-score -0.43. With UGCUCGAACAUGAAGUCCC against DNAI2 the assay gave seed-corrected z-score -0.1956. Result for UGCGCUUAAAAUCUCGUGG against HEPHL1 was seed-corrected z-score -0.0544. For UUUAGUGGUGUUGUGGAGC against TSSK4 the result was seed-corrected z-score -0.4343.

UUCACGACCACAAAUGUAG against LOC100505841 gave seed-corrected z-score -0.3141. With AAGAAGAUUAGGAAGCUUG against SAMM50 the assay gave seed-corrected z-score 0.2012. UCUGAGUCCUCAGAAUUGG against MAP3K12 read seed-corrected z-score 0.7129. UCUAUAACAAAUAGACUGC against CDH9 gave seed-corrected z-score -0.3908. With UCAGUGUUUCAAGUACUCG against CEACAM20 the assay gave seed-corrected z-score 1.228. UUGCGUGUGAAGAUGCUCC against LCP2 gave seed-corrected z-score 0.003417. UUACUCGCGGCGGUGAUCU against RPL14 read seed-corrected z-score 0.3146.

For UUUAACACCAUUUCGUAUC against POLG2 the result was seed-corrected z-score 0.1093. With UGGGCUUUGAAAUCCGCAC against YPEL3 the assay gave seed-corrected z-score 2.034. With UGCUUUAGUGUGGAUUUGC against NXPH1 the assay gave seed-corrected z-score 0.4666. For AAUGAGGUUAGACUUGUUG against ZNF154 the result was seed-corrected z-score -0.9632. ACAACUGCUAUCAAGAUCC against FAM26F gave seed-corrected z-score -1.587. UAAGCAAAACUAGCAAUCU against LRRC23 read seed-corrected z-score 0.3071.

Some entries from above, unchanged:

Sequence	target gene	seed-corrected z-score
UUCACGACCACAAAUGUAG	LOC100505841	-0.3141
UAAUUCUAUGUAGUAGGUC	RABL3	0.7299
UAAGCAAAACUAGCAAUCU	LRRC23	0.3071